Experimental data: the supplement of paper PMC3334620
The full ranking holds about 33,000 sequences; the median of “E-score (-0.5 to 0.5)” is about -0.0059, and the highest 2% start at about 0.26. The list shows a part of the results.

Each sequence was assayed against T1, Cin5 (UniProt P40917) (assay: PBM E-score (8-mer binding enrichment) (E-score (-0.5 to 0.5)); higher = stronger / more preferred TF binding). Conditions: protein concentration: 100 nM; construct: GST-full length.
T1 sequence: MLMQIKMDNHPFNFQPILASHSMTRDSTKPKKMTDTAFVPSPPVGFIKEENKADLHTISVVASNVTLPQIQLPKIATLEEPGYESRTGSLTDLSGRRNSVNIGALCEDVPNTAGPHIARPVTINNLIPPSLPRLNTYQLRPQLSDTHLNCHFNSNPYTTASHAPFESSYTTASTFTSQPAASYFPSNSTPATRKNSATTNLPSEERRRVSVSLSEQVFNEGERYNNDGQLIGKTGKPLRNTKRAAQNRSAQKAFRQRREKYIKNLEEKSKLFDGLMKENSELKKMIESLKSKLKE
Procedure: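 Universal 'all 10-mer' protein binding microarrays (Agilent AMADID 015681) probed with GST-tagged S. cerevisiae TFs (full-length or DBD) made by in vitro transcription/translation (PURExpress), about 100-200 nM. Bound TF was detected with fluorescent anti-GST. Each ungapped 8-mer (which stands for itself and its reverse complement) is scored by the PBM enrichment score (E-score), a modified Wilcoxon-Mann-Whitney statistic from -0.5 to +0.5, computed with the Universal PBM Analysis Suite. Scale: above 0.35 generally sequence-specific binding.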

Row | Sequence | PBM E-score
1 | CCTGGAAA | -0.0619
2 | AAACGGCC | -0.123
3 | CTCAGCAC | -0.0366
4 | CACCAGCA | -0.0848
5 | ACGCAACA | 0.00103
6 | GATCACCA | 0.0841
7 | CCGGGGTC | -0.18
8 | ATCAAGGC | 0.06
9 | ATGGCTGG | -0.137
10 | ACATCCGT | 0.164
11 | GATCAATC | -0.016
12 | GCCAACGC | -0.149
13 | AAACAGGA | 0.0198
14 | CAGCGCTG | 0.0994
15 | CCGTAGGA | -0.224
16 | CCCTTTAG | -0.263
17 | CTACTAGA | 0.0506
18 | ATCTCTCC | -0.0642
19 | TAATGCAA | -0.00491
20 | AAGACGAA | 0.104
21 | CAAATATG | 0.117
22 | CTAACCAG | -0.043
23 | ATACGAAG | 0.0767
24 | AAATAAAC | 0.187
25 | CCGACAGC | -0.26

Quoted at random: three records from the list.
Row | Sequence | PBM E-score
1 | CCTGGAAA | -0.0619
6 | GATCACCA | 0.0841
19 | TAATGCAA | -0.00491

The list continues.

Row | Sequence | PBM E-score
26 | AAGTCTGT | 0.0322
27 | ACCGTTTC | 0.00077
28 | CTACCGTA | 0.0364
29 | GACCGCCC | -0.161
30 | CGGGTTGC | -0.0157
31 | CTACTCCC | 0.0928
32 | ATGATATA | 0.166
33 | AGGTGTAT | 0.158
34 | ACGGTTAC | 0.0476
35 | ATAGCACA | 0.0731
36 | CTTGGGAC | -0.0756
37 | CGTAAACG | -0.0605
38 | AGAGTCTC | -0.0361
39 | CCGCAATC | 0.101
40 | AGGGGATA | 0.107
41 | CCTTAACA | -0.0543
42 | ATTTAGTG | 0.199
43 | TAATAGCA | 0.0415
44 | ATTTCTTA | 0.092
45 | GCCCCCGA | -0.396
46 | ACTGTTGG | -0.0947
47 | AGACGAAT | 0.0391
48 | AAGCATCG | -0.122
49 | ATCTTCCG | 0.108
50 | ACCGATCT | -0.0633

Row | Sequence | PBM E-score
51 | CGATGAAG | 0.0255
52 | ATACAAAT | 0.22
53 | GTTGATAA | 0.193
54 | GGCCTCCA | -0.26
55 | ACGGCTTC | -0.0049
56 | GAGAATGA | 0.182
57 | CGACCACG | 0.0142
58 | CTGCAGCC | -0.106
59 | GTCCGCGA | -0.0143
60 | ATCGCCGC | 0.0528
61 | AAGGTGCC | -0.125
62 | AGTATGGC | 0.00094
63 | CTGACAAC | 0.0895
64 | ATCAGGAC | -0.0181
65 | AGGTTTCG | 0.0224
66 | AAGCTGAA | 0.128
67 | ATCGAGTG | 0.164
68 | ACTTGCCG | -0.106
69 | GGAGCACC | -0.257
70 | GTGTGACA | -0.0861
71 | GGACGGCA | -0.128
72 | CGGATCGC | 0.017
73 | AACTTTCT | 0.0623
74 | ATTTCTCC | 0.0831
75 | ATAGTAGC | 0.198

Row | Sequence | PBM E-score
76 | AATGCGCC | 0.0821
77 | CCATTTTA | 0.191
78 | GGAAGGCA | -0.123
79 | CGTGGCCA | -0.208
80 | ACGGTAAT | -0.0579
81 | AGTGATTC | -0.0118
82 | ACATCAGA | 0.136
83 | AAAGGCCC | -0.104
84 | AGCATTCA | 0.0341
85 | GATGCATC | 0.106
86 | ATCCATAA | 0.219
87 | GGTCACAA | -0.0658
88 | GTAGAGTA | 0.0414
89 | GTCCCAAC | -0.125
90 | GACTAATC | 0.18
91 | ACTAATTC | 0.204
92 | CAAGGTGC | -0.127
93 | AACCTGGC | -0.144
94 | CAGTGAAG | -0.0991
95 | CGAGATGA | 0.0736
96 | CCCCTGGC | -0.309
97 | ATCTTGGG | 0.13
98 | AAACGCCG | 0.131
99 | AGTCTAAC | -0.16
100 | ACCTCTGA | 0.0292

Row | Sequence | PBM E-score
101 | GAGAGGGC | -0.412
102 | ACCGAATG | -0.0712
103 | GCAACACA | 0.0801
104 | AACCATGT | 0.0944
105 | CTCGCCAC | -0.0233
106 | CCCAAGGA | -0.148
107 | CATTTAAC | 0.0886
108 | GTATCGAC | 0.047
109 | ATTCACCG | 0.172
110 | CAACGGGG | -0.17
111 | CCGTCAAG | -0.0292
112 | AACAATAA | 0.257
113 | ATCACCAT | 0.197
114 | ATCACATC | 0.117
115 | AATCTGTA | 0.224
116 | GTCCTACA | 0.0317
117 | GGACGTTA | 0.0206
118 | ACTTGATC | 0.111
119 | AGCATAAG | 0.16
120 | AGACTGCT | -0.00887
121 | AGATCTGC | 0.0378
122 | GCGTTCCC | -0.174
123 | GGTATCCA | 0.0407
124 | AAACATCT | -0.0629
125 | ACATCCTG | 0.205

Reformatted tab-delimited: part of the list above.
Row	Sequence	PBM E-score
103	GCAACACA	0.0801
105	CTCGCCAC	-0.0233
120	AGACTGCT	-0.00887
125	ACATCCTG	0.205

Continuation:

Row | Sequence | PBM E-score
126 | AACTAGCA | 0.118
127 | GTTGGTCA | 0.166
128 | AGTAATCG | 0.262
129 | AGCATTGC | -0.0653
130 | ACGTTTCA | 0.00593
131 | GGGTACAA | -0.0689
132 | CGGCAAAG | -0.00808
133 | CGACCGGC | -0.0722
134 | ACCATCAC | 0.0626
135 | GCGAACTA | 0.137
136 | AAAATCCA | 0.246
137 | AATAGGCG | 0.111
138 | GACTACCC | -0.127
139 | CGCCTACC | -0.0803
140 | AACTCTGT | 0.0107
141 | GCGTAAGA | 0.113
142 | AGCCTGTA | -0.102
143 | AGACGTGC | -0.16
144 | AACGGAGG | -0.138
145 | ATGAGAGC | -0.0368
146 | GTATGACA | 0.172
147 | CTTCCGCC | -0.183
148 | ATCATTGA | 0.178
149 | GAACTTAA | -0.0267
150 | AGGCACGC | -0.0834

Row | Sequence | PBM E-score
151 | TTAACGAA | 0.145
152 | GTTTGCTA | 0.0646
153 | CCACTATC | -0.0477
154 | GTAACATA | 0.0684
155 | CTTGTAGA | -0.282
156 | CAGTTTCA | 0.0521
157 | CGTCTATC | -0.0488
158 | CGAACTAG | 0.0477
159 | GTACCCAC | -0.0302
160 | CATAGTAC | 0.0648
161 | GAACCCTC | -0.173
162 | GGTTCCGA | 0.116
163 | TTCCGCAA | 0.0528
164 | AGGCGCAA | 0.113
165 | ATCCGAAG | 0.073
166 | ATATCCCG | 0.166
167 | CCCGGACG | -0.241
168 | ATCACCAA | 0.174
169 | AGACCGCC | -0.0364
170 | CCCAGAGG | -0.279
171 | CGCATTTA | 0.131
172 | ATCCCACC | 0.194
